Experimental data from the supplement of paper PMC6078165.
Values are relative to the signal before dosing, not to a vehicle control; the signal also falls without drug.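 Labels refer to human fibroblasts, largely primary: uterine (C12385, HUF), lung (H6013), bone (Hs27A), adrenal (HADF), skin (WS1), plus mammary HMF and breast cancer-associated Hs343T. Cancer lines are basal-like or mesenchymal-like triple-negative breast cancer. The paper counts as hits responses shifting over 3x the replicate standard deviation. The tissue of the other fibroblasts is not given here.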

System: MDAMB231
Assay: relative JC-1 red fluorescence (viability) vs pre-drug, coculture with fibroblast (fraction); higher = more viable cancer cells
Description: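 JC-1 labelled TNBC cells cocultured 1:1 (1,500 cells each) with CellTrace Violet stained primary or stromal fibroblasts in 384-well plates in FluoroBrite medium, treated with one of 42 anticancer drugs at 0.1, 1, 10 or 100 uM. JC-1 red fluorescence (mitochondrial integrity in cancer cells only) was read by plate reader every 8 h for 72 h. Values are normalised to each well's pre-drug value. The stock of one drug was tenfold lower, so its dose labels may be too high.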

CCc1c2c(nc3ccc(OC(=O)N4CCC(N5CCCCC5)CC4)cc13)-c1cc3c(c(=O)n1C2)COC(=O)[C@]3(O)CC [Irinotecan]
relative JC-1 red fluorescence
Settings | 8 h | 16 h | 24 h | 32 h | 40 h | 48 h | 56 h | 64 h | 72 h
0.1 µM, coculture fibroblast: C12385 | 0.744 | 0.7026 | 0.62 | 0.588 | 0.526 | 0.492 | 0.444 | 0.437 | 0.411
0.1 µM, coculture fibroblast: H6013 | 0.8715 | 0.80307 | 0.778 | 0.7595 | 0.7239 | 0.7026 | 0.692 | 0.6696 | 0.632
0.1 µM, coculture fibroblast: H6019 | 0.761 | 0.727 | 0.609 | 0.603 | 0.541 | 0.509 | 0.474 | 0.443 | 0.397
0.1 µM, coculture fibroblast: H6076 | 0.892 | 0.809 | 0.739 | 0.7073 | 0.656 | 0.613 | 0.573 | 0.555 | 0.541
0.1 µM, coculture fibroblast: H6231 | 0.87 | 0.778 | 0.717 | 0.688 | 0.634 | 0.6 | 0.559 | 0.541 | 0.519
0.1 µM, coculture fibroblast: HADF | 0.858 | 0.804 | 0.7696 | 0.7369 | 0.699 | 0.658 | 0.644 | 0.63 | 0.586
0.1 µM, coculture fibroblast: HCFa | 0.892 | 0.846 | 0.803 | 0.765 | 0.711 | 0.644 | 0.6167 | 0.585 | 0.54
0.1 µM, coculture fibroblast: HCPF | 0.871 | 0.7627 | 0.6901 | 0.6625 | 0.61 | 0.567 | 0.53 | 0.498 | 0.476
0.1 µM, coculture fibroblast: HHSteC | 0.87991 | 0.828 | 0.783 | 0.741 | 0.697 | 0.668 | 0.624 | 0.596 | 0.554
0.1 µM, coculture fibroblast: HMF | 0.8619 | 0.771 | 0.724 | 0.681 | 0.6365 | 0.597 | 0.556 | 0.545 | 0.526
0.1 µM, coculture fibroblast: HPFa | 0.929 | 0.873 | 0.8124 | 0.748 | 0.719 | 0.676 | 0.62 | 0.578 | 0.511
0.1 µM, coculture fibroblast: HUF | 0.849 | 0.731 | 0.702 | 0.593 | 0.522 | 0.485 | 0.43 | 0.406 | 0.381
0.1 µM, coculture fibroblast: Hs5 | 0.833 | 0.785 | 0.771 | 0.734 | 0.706 | 0.664 | 0.637 | 0.6124 | 0.5879
0.1 µM, coculture fibroblast: Hs27A | 0.8751 | 0.8237 | 0.777 | 0.74697 | 0.694 | 0.616 | 0.622 | 0.5966 | 0.547
0.1 µM, coculture fibroblast: Hs343T | 0.8707 | 0.73593 | 0.6696 | 0.63606 | 0.5784 | 0.538 | 0.48 | 0.459 | 0.443
0.1 µM, coculture fibroblast: WS1 | 0.718 | 0.673 | 0.603 | 0.559 | 0.504 | 0.471 | 0.423 | 0.405 | 0.378
1 µM, coculture fibroblast: C12385 | 0.745 | 0.696 | 0.665 | 0.611 | 0.5 | 0.479 | 0.462 | 0.476 | 0.468
1 µM, coculture fibroblast: H6013 | 0.866 | 0.8646 | 0.835 | 0.824 | 0.794 | 0.795 | 0.778 | 0.762 | 0.719
1 µM, coculture fibroblast: H6019 | 0.81 | 0.76 | 0.698 | 0.667 | 0.62 | 0.597 | 0.555 | 0.538 | 0.499
1 µM, coculture fibroblast: H6076 | 0.843 | 0.766 | 0.716 | 0.685 | 0.636 | 0.587 | 0.566 | 0.55 | 0.532
1 µM, coculture fibroblast: H6231 | 0.836 | 0.85 | 0.807 | 0.76 | 0.689 | 0.644 | 0.599 | 0.58 | 0.56
1 µM, coculture fibroblast: HADF | 0.845 | 0.8383 | 0.814 | 0.766 | 0.744 | 0.71 | 0.689 | 0.684 | 0.639
1 µM, coculture fibroblast: HCFa | 0.8792 | 0.859 | 0.826 | 0.7821 | 0.735 | 0.6759 | 0.642 | 0.603 | 0.554
1 µM, coculture fibroblast: HCPF | 0.86 | 0.73 | 0.686 | 0.657 | 0.595 | 0.555 | 0.524 | 0.497 | 0.48
1 µM, coculture fibroblast: HHSteC | 0.918 | 0.8836 | 0.842 | 0.789 | 0.763 | 0.737 | 0.689 | 0.665 | 0.6184
1 µM, coculture fibroblast: HMF | 0.898 | 0.8337 | 0.78 | 0.738 | 0.688 | 0.65 | 0.632 | 0.616 | 0.6
1 µM, coculture fibroblast: HPFa | 0.913 | 0.868 | 0.8263 | 0.761 | 0.731 | 0.694 | 0.621 | 0.586 | 0.532
1 µM, coculture fibroblast: HUF | 0.8436 | 0.7415 | 0.749 | 0.6263 | 0.558 | 0.539 | 0.48 | 0.472 | 0.449
1 µM, coculture fibroblast: Hs5 | 0.892 | 0.81 | 0.751 | 0.695 | 0.643 | 0.593 | 0.557 | 0.53 | 0.496
1 µM, coculture fibroblast: Hs27A | 0.8805 | 0.8414 | 0.8111 | 0.79 | 0.7304 | 0.674 | 0.6639 | 0.644 | 0.595
1 µM, coculture fibroblast: Hs343T | 0.8691 | 0.777 | 0.729 | 0.682 | 0.624 | 0.572 | 0.524 | 0.498 | 0.463
1 µM, coculture fibroblast: WS1 | 0.725 | 0.686 | 0.619 | 0.554 | 0.499 | 0.465 | 0.421 | 0.418 | 0.394
